# In the supplement of paper PMC10849652:
# The chains behind the UniProt entries cited, without tags or fusion partners. Where a name states a change or a piece, a line headed by the entry shows the natural chain unless it says otherwise.
# UniProt P29353: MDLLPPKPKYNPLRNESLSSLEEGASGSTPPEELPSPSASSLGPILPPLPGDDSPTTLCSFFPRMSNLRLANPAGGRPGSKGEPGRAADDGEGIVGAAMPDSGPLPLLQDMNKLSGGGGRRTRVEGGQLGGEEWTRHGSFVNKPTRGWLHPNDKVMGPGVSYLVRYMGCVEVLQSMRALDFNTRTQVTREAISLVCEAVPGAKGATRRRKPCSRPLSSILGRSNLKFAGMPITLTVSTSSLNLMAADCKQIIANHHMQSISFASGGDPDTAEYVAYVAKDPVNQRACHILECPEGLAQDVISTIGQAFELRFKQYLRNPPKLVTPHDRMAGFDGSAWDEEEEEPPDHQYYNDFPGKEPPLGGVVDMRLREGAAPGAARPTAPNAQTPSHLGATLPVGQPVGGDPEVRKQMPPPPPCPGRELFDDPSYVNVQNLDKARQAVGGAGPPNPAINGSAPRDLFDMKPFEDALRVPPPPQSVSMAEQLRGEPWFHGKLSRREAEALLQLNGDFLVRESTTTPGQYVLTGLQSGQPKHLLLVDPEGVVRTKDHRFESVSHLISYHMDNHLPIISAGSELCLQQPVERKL
# UniProt P60468, whole entry, looked up: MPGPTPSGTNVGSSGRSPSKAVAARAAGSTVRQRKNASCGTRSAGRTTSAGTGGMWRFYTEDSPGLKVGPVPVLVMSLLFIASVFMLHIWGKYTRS
# UniProt Q9H299: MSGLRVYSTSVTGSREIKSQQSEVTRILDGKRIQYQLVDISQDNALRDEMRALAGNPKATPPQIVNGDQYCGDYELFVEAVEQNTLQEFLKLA
# UniProt Q9NVA2: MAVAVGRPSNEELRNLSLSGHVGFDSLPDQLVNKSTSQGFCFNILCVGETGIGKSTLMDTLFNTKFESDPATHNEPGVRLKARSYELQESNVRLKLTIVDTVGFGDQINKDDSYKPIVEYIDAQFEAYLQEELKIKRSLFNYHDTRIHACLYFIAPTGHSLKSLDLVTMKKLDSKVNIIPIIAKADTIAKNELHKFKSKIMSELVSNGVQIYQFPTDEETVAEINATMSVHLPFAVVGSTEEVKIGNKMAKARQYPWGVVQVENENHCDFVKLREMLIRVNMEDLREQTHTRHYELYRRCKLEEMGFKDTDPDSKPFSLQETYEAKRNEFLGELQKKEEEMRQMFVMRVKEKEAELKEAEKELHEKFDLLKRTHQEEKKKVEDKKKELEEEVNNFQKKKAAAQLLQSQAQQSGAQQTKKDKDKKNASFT
# UniProt P31947: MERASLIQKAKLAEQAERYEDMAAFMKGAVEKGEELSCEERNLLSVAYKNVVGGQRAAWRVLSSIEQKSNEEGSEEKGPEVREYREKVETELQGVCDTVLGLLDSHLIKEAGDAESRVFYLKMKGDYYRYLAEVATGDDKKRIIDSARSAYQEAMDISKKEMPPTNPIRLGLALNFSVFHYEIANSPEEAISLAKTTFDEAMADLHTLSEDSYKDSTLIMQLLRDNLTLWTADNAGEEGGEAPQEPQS
# UniProt Q15637: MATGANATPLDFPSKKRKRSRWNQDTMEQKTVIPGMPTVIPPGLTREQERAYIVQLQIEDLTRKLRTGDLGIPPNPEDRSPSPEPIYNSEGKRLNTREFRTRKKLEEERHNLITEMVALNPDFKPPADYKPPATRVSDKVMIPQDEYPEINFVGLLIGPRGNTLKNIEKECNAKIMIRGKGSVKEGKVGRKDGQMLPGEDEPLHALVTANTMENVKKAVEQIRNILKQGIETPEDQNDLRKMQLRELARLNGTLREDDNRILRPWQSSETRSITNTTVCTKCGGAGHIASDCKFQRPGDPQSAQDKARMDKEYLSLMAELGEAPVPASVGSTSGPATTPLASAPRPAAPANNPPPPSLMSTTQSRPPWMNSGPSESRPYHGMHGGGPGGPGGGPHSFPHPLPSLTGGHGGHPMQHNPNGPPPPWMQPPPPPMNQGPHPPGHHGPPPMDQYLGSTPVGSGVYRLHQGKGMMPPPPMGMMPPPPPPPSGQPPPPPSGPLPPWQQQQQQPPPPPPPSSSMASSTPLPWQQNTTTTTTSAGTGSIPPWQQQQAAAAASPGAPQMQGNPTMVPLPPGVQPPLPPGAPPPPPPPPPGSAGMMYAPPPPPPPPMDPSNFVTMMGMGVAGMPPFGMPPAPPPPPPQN
# UniProt O60613, whole entry, looked up: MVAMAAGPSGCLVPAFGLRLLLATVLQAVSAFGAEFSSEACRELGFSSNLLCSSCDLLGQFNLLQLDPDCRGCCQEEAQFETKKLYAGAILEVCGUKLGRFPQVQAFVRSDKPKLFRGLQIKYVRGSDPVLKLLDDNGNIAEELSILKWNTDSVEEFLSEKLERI
# UniProt Q9UJC5: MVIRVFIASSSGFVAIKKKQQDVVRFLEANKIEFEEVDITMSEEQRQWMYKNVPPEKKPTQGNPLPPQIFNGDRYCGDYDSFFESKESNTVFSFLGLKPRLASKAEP
# UniProt Q9C0C4, whole entry, looked up: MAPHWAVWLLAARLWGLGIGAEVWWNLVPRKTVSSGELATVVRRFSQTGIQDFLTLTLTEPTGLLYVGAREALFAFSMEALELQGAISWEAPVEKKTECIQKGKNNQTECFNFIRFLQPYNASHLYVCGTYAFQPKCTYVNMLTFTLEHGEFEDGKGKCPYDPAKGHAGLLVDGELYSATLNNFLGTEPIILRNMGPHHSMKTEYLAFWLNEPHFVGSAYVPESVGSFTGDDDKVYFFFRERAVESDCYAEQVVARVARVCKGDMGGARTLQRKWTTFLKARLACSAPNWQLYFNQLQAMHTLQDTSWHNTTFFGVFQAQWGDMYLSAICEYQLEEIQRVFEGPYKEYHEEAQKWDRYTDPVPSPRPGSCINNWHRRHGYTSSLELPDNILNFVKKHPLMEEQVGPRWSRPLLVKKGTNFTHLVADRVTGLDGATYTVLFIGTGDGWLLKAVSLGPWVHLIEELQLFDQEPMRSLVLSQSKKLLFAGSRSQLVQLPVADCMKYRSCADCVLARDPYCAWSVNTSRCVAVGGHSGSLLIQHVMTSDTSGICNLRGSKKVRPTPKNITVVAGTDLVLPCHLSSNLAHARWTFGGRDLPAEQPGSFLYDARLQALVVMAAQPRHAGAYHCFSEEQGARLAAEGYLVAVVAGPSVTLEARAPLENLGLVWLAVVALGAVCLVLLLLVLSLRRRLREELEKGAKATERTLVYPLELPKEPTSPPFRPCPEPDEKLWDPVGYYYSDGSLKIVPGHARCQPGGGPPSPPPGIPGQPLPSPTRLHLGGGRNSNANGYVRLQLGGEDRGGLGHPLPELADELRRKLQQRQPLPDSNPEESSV
# UniProt Q9Y3L3: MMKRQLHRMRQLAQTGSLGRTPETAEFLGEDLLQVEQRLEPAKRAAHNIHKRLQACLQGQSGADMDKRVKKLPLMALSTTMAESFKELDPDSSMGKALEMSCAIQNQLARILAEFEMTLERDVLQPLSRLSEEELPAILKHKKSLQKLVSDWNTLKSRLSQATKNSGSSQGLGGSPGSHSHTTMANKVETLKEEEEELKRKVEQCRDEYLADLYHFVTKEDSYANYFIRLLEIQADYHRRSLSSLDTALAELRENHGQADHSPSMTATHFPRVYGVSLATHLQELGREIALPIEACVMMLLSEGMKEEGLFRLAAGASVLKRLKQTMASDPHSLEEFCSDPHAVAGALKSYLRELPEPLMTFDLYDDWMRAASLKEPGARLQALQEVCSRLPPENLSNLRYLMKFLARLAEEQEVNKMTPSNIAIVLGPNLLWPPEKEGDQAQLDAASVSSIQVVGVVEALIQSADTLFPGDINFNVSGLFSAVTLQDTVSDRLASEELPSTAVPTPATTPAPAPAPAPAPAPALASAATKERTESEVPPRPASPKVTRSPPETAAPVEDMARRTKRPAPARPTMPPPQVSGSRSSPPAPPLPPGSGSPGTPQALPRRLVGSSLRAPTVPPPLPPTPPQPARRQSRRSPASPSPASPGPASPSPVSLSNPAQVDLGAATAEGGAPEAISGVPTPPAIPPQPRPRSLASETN
# UniProt Q99720, whole entry, looked up: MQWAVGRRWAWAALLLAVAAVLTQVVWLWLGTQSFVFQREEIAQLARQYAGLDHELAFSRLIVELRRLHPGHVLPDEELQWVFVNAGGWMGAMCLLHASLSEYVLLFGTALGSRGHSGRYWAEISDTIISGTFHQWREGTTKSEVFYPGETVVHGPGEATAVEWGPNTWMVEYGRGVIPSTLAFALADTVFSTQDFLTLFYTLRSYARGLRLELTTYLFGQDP
# UniProt Q9NXA8: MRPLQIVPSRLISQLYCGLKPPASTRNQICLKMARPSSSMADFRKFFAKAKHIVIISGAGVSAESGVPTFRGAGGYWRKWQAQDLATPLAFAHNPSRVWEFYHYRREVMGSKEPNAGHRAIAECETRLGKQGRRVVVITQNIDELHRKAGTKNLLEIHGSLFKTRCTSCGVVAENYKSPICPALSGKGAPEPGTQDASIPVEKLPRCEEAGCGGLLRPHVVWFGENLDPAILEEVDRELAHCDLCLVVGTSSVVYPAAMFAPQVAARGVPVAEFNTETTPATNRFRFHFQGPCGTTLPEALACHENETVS
# UniProt P50452: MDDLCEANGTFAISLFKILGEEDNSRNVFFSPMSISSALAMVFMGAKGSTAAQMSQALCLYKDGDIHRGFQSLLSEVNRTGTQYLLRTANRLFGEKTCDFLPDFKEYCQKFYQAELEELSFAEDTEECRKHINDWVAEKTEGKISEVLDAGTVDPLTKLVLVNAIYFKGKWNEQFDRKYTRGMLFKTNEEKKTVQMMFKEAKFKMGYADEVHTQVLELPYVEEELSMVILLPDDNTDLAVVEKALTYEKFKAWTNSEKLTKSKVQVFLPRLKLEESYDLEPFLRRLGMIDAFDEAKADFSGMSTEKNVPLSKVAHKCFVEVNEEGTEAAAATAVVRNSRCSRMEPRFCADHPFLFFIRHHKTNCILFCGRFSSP
# UniProt Q96EQ0: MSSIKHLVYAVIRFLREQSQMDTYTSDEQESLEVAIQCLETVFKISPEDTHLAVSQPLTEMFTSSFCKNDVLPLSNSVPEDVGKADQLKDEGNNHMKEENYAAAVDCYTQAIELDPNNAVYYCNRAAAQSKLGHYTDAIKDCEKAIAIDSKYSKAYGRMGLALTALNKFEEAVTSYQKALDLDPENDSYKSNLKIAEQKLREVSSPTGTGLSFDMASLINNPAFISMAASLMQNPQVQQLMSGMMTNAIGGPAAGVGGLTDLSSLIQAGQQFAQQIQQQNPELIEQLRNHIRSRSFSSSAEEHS
# UniProt Q99442: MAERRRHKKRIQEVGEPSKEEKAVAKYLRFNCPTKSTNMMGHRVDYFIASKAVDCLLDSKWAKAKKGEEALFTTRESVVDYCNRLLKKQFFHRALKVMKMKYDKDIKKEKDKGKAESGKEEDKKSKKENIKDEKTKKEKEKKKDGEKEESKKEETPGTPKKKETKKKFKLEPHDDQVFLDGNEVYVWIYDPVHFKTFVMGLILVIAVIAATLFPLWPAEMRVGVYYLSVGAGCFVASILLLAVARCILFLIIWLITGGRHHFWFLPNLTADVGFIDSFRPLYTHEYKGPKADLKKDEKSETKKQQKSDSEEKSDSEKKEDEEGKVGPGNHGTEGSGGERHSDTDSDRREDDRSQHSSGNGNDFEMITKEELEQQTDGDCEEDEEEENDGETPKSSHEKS
# UniProt Q9UQ13: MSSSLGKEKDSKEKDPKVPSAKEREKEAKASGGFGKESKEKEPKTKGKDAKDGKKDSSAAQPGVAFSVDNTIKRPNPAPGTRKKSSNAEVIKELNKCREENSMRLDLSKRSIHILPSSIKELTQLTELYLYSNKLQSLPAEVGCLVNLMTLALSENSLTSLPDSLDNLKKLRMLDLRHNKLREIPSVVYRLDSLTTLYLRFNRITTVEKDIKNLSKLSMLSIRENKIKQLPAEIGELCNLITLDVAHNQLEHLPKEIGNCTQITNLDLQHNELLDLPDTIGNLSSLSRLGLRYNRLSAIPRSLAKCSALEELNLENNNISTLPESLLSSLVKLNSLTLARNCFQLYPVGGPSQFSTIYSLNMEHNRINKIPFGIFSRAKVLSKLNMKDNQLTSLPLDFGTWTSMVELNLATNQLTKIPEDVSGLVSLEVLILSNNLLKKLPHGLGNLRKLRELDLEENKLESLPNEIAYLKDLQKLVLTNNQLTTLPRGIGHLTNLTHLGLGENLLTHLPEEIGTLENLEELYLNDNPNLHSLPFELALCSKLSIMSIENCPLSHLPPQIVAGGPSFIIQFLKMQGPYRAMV
# UniProt Q8NC51: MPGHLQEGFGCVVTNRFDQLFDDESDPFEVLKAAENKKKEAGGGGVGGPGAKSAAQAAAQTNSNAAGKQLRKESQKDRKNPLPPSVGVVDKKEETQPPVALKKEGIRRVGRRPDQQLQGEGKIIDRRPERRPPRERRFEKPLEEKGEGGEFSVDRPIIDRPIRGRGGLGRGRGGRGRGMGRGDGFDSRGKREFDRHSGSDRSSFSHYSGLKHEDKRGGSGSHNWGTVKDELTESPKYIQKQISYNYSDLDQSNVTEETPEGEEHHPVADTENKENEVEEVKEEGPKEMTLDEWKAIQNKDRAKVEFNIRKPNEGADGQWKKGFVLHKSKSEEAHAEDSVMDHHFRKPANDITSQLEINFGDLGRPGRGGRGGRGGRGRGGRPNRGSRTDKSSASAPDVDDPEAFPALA
# The list shows a part of the results.
# Compound: NC1(c2ccc(-c3nc4ccn5c(=O)[nH]nc5c4cc3-c3ccccc3)cc2)CCC1
# Assay: log2 fold change, soluble protein after heating vs DMSO (PISA); higher = thermal stabilisation; K562 cells, 10 uM, 30 min; active = over 0.2 and 3.5 SD of the protein, either way, in both replicates (recomputed)
# In short: (§1)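 For each measurement, 10 μM compound was applied for 30 min to K562 cells at 2×10^6 cells/mL. Aliquots were heated for 3 min across 48°C-58°C, pooled, and extracted in PBS with 0.5% NP-40 at 4°C; the supernatant after 21,000xg for 90 min was soluble protein. This was quantified by TMTpro 16plex LC-MS/MS with channel sums equalised, and thermal stability was reported relative to control samples from duplicates, on a log2 fold-change scale.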
row,Target,log2 fold change
1,SHC1 isoform 6 (UniProt P29353),inactive: 0.022
2,SEC61B (UniProt P60468),inactive: 0.036
3,SF3A3 (UniProt Q12874),inactive: 0.029
4,SERPINB1 (UniProt P30740),inactive: -0.043
5,SH3BGRL3 (UniProt Q9H299),inactive: 0.002
6,SETDB1 (UniProt Q15047),inactive: -0.137
7,SEPTIN11 isoform 2 (UniProt Q9NVA2),inactive: 0.02
8,"SERPINB6, A0A087X1N8",inactive: -0.012
9,SF3B6 (UniProt Q9Y3B4),inactive: 0.022
10,SF3B3 (UniProt Q15393),inactive: -0.014
11,SIRT6 (UniProt Q8N6T7),inactive: -0.068
12,SF3B1 (UniProt O75533),inactive: -0.026
13,SFN (UniProt P31947),inactive: 0.112
14,SF1 isoform 6 (UniProt Q15637),inactive: -0.042
15,SELENOF (UniProt O60613),inactive: -0.023
16,SERPINC1 (UniProt P01008),inactive: 0.124
17,SEL1L3 (UniProt Q68CR1),inactive: -0.094
18,SF1 isoform 5 (UniProt Q15637),inactive: 0.033
19,SH3BGRL2 (UniProt Q9UJC5),inactive: 0.024
20,SEMA4C (UniProt Q9C0C4),inactive: -0.129

row,Target,log2 fold change
1,SEPTIN9 (UniProt Q9UHD8),inactive: -0.052
2,SH3BP1 (UniProt Q9Y3L3),inactive: -0.088
3,SF3B2 (UniProt Q13435),inactive: 0.097
4,SIGMAR1 (UniProt Q99720),inactive: -0.002
5,SELENBP1 isoform 4 (UniProt Q13228),inactive: 0.015
6,SEPTIN10 isoform 2 (UniProt Q9P0V9),inactive: 0.09
7,SIRT5 (UniProt Q9NXA8),inactive: -0.087
8,SEPTIN6 (UniProt Q14141),inactive: 0.142
9,SERPINB8 (UniProt P50452),inactive: 0.014
10,SGTB (UniProt Q96EQ0),inactive: -0.04
11,SEC62 (UniProt Q99442),inactive: 0.058
12,SEL1L (UniProt Q9UBV2),inactive: -0.05
13,SEC61A2 (UniProt Q9H9S3),inactive: -0.033
14,SGMS1 (UniProt Q86VZ5),inactive: -0.046
15,SFSWAP isoform 2 (UniProt Q12872),inactive: 0.051
16,SEPTIN7 (UniProt Q16181),inactive: -0.036
17,SEC61A1 (UniProt P61619),inactive: -0.041
18,SHOC2 (UniProt Q9UQ13),inactive: -0.132
19,SERBP1 (UniProt Q8NC51),inactive: 0.207
20,SH3GLB1 isoform 2 (UniProt Q9Y371),inactive: -0.238

# Compound: NCC(=O)Nc1ccc(-n2nc(C(F)(F)F)cc2-c2ccc3c(ccc4ccccc43)c2)cc1
# Assay: as above
# In short: as §1
row,Target,log2 fold change
1,SHC1 isoform 6 (UniProt P29353),inactive: -0.008
2,SEC61B (UniProt P60468),inactive: -0.044
3,SF3A3 (UniProt Q12874),inactive: -0.077
4,SERPINB1 (UniProt P30740),inactive: -0.04
5,SH3BGRL3 (UniProt Q9H299),inactive: 0.051
6,SETDB1 (UniProt Q15047),inactive: -0.033
7,SEPTIN11 isoform 2 (UniProt Q9NVA2),inactive: 0
8,"SERPINB6, A0A087X1N8",inactive: 0.043
9,SF3B6 (UniProt Q9Y3B4),inactive: 0.002
10,SF3B3 (UniProt Q15393),inactive: -0.03
11,SIRT6 (UniProt Q8N6T7),inactive: -0.08
12,SF3B1 (UniProt O75533),inactive: -0.013
13,SFN (UniProt P31947),inactive: -0.082
14,SF1 isoform 6 (UniProt Q15637),inactive: 0.019
15,SELENOF (UniProt O60613),inactive: 0.026
16,SERPINC1 (UniProt P01008),inactive: 0.026
17,SEL1L3 (UniProt Q68CR1),inactive: 0.002
18,SF1 isoform 5 (UniProt Q15637),inactive: 0.034
19,SH3BGRL2 (UniProt Q9UJC5),inactive: -0.06
20,SEMA4C (UniProt Q9C0C4),inactive: 0.011

row,Target,log2 fold change
1,SEPTIN9 (UniProt Q9UHD8),inactive: -0.021
2,SH3BP1 (UniProt Q9Y3L3),inactive: 0.031
3,SF3B2 (UniProt Q13435),inactive: -0.003
4,SIGMAR1 (UniProt Q99720),inactive: -0.064
5,SELENBP1 isoform 4 (UniProt Q13228),inactive: 0.079
6,SEPTIN10 isoform 2 (UniProt Q9P0V9),inactive: -0.06
7,SIRT5 (UniProt Q9NXA8),inactive: -0.129
8,SEPTIN6 (UniProt Q14141),inactive: 0.008
9,SERPINB8 (UniProt P50452),inactive: 0.043
10,SGTB (UniProt Q96EQ0),inactive: -0.021
11,SEC62 (UniProt Q99442),inactive: 0.007
12,SEL1L (UniProt Q9UBV2),inactive: 0.008
13,SEC61A2 (UniProt Q9H9S3),inactive: 0.021
14,SGMS1 (UniProt Q86VZ5),inactive: 0.015
15,SFSWAP isoform 2 (UniProt Q12872),inactive: -0.164
16,SEPTIN7 (UniProt Q16181),inactive: 0.041
17,SEC61A1 (UniProt P61619),inactive: -0.049
18,SHOC2 (UniProt Q9UQ13),inactive: -0.031
19,SERBP1 (UniProt Q8NC51),inactive: 0.026
20,SH3GLB1 isoform 2 (UniProt Q9Y371),inactive: -0.042
